Some of the results follow.
The sequences below were run against OsWRKY34 (Oryza sativa, UniProt Q0JBA9 1-250) (assay: protein-binding microarray (RPBM); PBS, 2% BSA, 51.3 ng/ul salmon testes DNA, 50 uM zinc acetate, 200 nM TF, 25 C, 1 h; high values mean tight binding). Details: protein: recombinant; tags: N-terminal polyhistidine and DsRed monomer fusion (pET32a); label: CyDye5-dUTP incorporated in the synthesized complementary strand; 3' TTTTT single-stranded linker to array surface; dsDNA, one strand shown.
In short: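 Per-feature fluorescence intensity (arbitrary units), read on an Axon 4000B scanner, is the binding signal. Transcription factors carrying an N-terminal polyhistidine tag and DsRed fusion were expressed in E. coli BL21-CodonPlus and purified on Ni–NTA. A custom Agilent array, made double-stranded by primer extension with Cy5-dUTP and blocked with 2% BSA, was incubated with 200 nM protein in PBS, 2% BSA, salmon testes DNA and 50 µM zinc acetate at 25 °C for 1 h and then washed.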

Sequences of proteins named here, by UniProt entry; tags and fusion partners are left off.
UniProt Q0JBA9, entry or part of it: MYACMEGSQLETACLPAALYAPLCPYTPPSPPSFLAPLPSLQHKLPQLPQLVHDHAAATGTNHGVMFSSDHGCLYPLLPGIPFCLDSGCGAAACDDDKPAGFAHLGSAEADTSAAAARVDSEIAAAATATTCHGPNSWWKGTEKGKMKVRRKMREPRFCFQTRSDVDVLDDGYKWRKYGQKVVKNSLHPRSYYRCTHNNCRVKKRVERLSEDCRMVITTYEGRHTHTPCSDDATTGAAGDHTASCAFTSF

Sequence	binding signal
GGAGGTGGTGGTGGTGGAGGCATCGCCGACGACAAGTACCCGGAGTCACCTAGTGCAG	12500 fluorescence intensity (a.u.)
CACACCTGGTACATATGGATGTTCTGGCTGGTATCTGGTACGGAGTCACCTAGTGCAG	8420 fluorescence intensity (a.u.)
CTCATCCATCACTTTCTTTGTCCATCTCGACCTGAGAATTCGGAGTCACCTAGTGCAG	8880 fluorescence intensity (a.u.)
ACTCTCCCGTTATTGCCGCCACCGGACCGCTAGCTCCGCACGGAGTCACCTAGTGCAG	9570 fluorescence intensity (a.u.)
TGGATGGCCTTTTGTCTCTTTGTATATTATATATTTAGTTCGGAGTCACCTAGTGCAG	8260 fluorescence intensity (a.u.)
TGTCAACCCGCGCCTCCGATTTCTCCAGCTTTTCTTTCCCCGGAGTCACCTAGTGCAG	12800 fluorescence intensity (a.u.)
TACTTGCACTTTACTATATTCTTGCTGTTACGCACCACATCGGAGTCACCTAGTGCAG	14600 fluorescence intensity (a.u.)
CTCTCGCGCCAAGCCGGCCTCCATCTTCGCCGCCCGCGCCCGGAGTCACCTAGTGCAG	11300 fluorescence intensity (a.u.)
TCTCAACAGCTCCTTCAGTACCATCTTCACTCTTTTTCATCGGAGTCACCTAGTGCAG	8060 fluorescence intensity (a.u.)
GCGTACTTTACTATACTTTAGCCATTCCACATCAGTCCGTCGGAGTCACCTAGTGCAG	8320 fluorescence intensity (a.u.)
GTACAGTTCCTCCTCCTCCGGTCTCTCTCACCTGTCTGTCCGGAGTCACCTAGTGCAG	10500 fluorescence intensity (a.u.)
ATAAGACGAACGGTCAAACATGTGCTAAAAAAGTCAACGGCGGAGTCACCTAGTGCAG	11300 fluorescence intensity (a.u.)
TGAGTAATGTTTTTTTCACTGAATATTCTTTAATGTTAATCGGAGTCACCTAGTGCAG	8790 fluorescence intensity (a.u.)
GGTTGGCAGCGGCGGCGGAGGTGGGGAGAGGCGGGTGGTTCGGAGTCACCTAGTGCAG	13600 fluorescence intensity (a.u.)
ATTGCTTCCTTTTCCAACACCGCCTTTTAACCCTAAAAACCGGAGTCACCTAGTGCAG	9550 fluorescence intensity (a.u.)
ACGGACACGTGCCGGTGAGGGATGGGTTTGAATGGTTTGACGGAGTCACCTAGTGCAG	9890 fluorescence intensity (a.u.)
ATCCACAGCGGCCAGCCGGCCACCGACCCCTGGTCCAATCCGGAGTCACCTAGTGCAG	8800 fluorescence intensity (a.u.)
GCCACCACCAAGCCTTTGGTTTCTTTCACGCGCGCTCGCCCGGAGTCACCTAGTGCAG	9640 fluorescence intensity (a.u.)
TCTTGTTCTGCCTCTCTGTCTGGCGACTGGCGTCGTCGCTCGGAGTCACCTAGTGCAG	11000 fluorescence intensity (a.u.)
GTGCGCCATATCGATCACGTATACGTACGCGCGCGTGTTCCGGAGTCACCTAGTGCAG	10200 fluorescence intensity (a.u.)
ATGGATTTGGGAATTTGGGTGGGCGCGGAGCTCCTGATTCCGGAGTCACCTAGTGCAG	9550 fluorescence intensity (a.u.)

Sequence	binding signal
CATAAACTCATTTTCATCCATCACCCGTCATCCCACAGCTCGGAGTCACCTAGTGCAG	11300 fluorescence intensity (a.u.)
CGATATCCGGTCAAACGTTCGCTGTGACATCCAAAATTTTCGGAGTCACCTAGTGCAG	9580 fluorescence intensity (a.u.)
AGCCACCACAGCCATCGCCCGTTCTTCCCGCCGGCCTATCCGGAGTCACCTAGTGCAG	9990 fluorescence intensity (a.u.)
ATGATAAAGTTTCCGTACTTTTTCGATCCGTTTTCATCCCCGGAGTCACCTAGTGCAG	8350 fluorescence intensity (a.u.)
ATTTTATTTTCAATTTTTTAGAACCGTTTGATTGGTATTTCGGAGTCACCTAGTGCAG	8620 fluorescence intensity (a.u.)
TTCCTTTTTTTCCCATCTTTATCCACCGCTTCTCAGCCTCCGGAGTCACCTAGTGCAG	10300 fluorescence intensity (a.u.)
GCTGCTCGAGCGAGCGCGCACACACTATCACAGGGAGGGGCGGAGTCACCTAGTGCAG	8920 fluorescence intensity (a.u.)
TGTTGGCTTGTATATATCTGTCTAGATCTTTCTTCTCACTCGGAGTCACCTAGTGCAG	11000 fluorescence intensity (a.u.)
ATTATTATTTATTTTATTTGTGACTTACTTTATTATCCAACGGAGTCACCTAGTGCAG	9000 fluorescence intensity (a.u.)
TTATTTATTAATCTGTTGTATATTCTGCACTATCATTCCTCGGAGTCACCTAGTGCAG	9020 fluorescence intensity (a.u.)
TCCTCTGTTTTACACTTGCATTCCTATCAGAATCCTATATCGGAGTCACCTAGTGCAG	9540 fluorescence intensity (a.u.)
GTTCTTGAACTGCCTCTAGTATGAGAAATTTTTTTTTTTACGGAGTCACCTAGTGCAG	9530 fluorescence intensity (a.u.)
TAGTATTTTTTTCCTTGGTTTTGTTTCTATCTCCTCTGACCGGAGTCACCTAGTGCAG	9480 fluorescence intensity (a.u.)
TACTTCTATGCAATATATGGACCATCATCTATTACCTAATCGGAGTCACCTAGTGCAG	8150 fluorescence intensity (a.u.)
TCTTCTTGTTTGCTGATCTTGTTCCTTGGTGGAAGGATGCCGGAGTCACCTAGTGCAG	9990 fluorescence intensity (a.u.)
GTCCACTGTTTTATTCGGCCATATGAGGCCTTCGATTCAGCGGAGTCACCTAGTGCAG	8250 fluorescence intensity (a.u.)
ATCTCATCCGTCCGCTGTACACCGTAGCTCTATCTCTTCCCGGAGTCACCTAGTGCAG	11500 fluorescence intensity (a.u.)
AAACACCTCTTTGGCCTGGTTTAGTTTCTAACTTTTTCTTCGGAGTCACCTAGTGCAG	8780 fluorescence intensity (a.u.)
GCGCGAGAAATTTGTCCTAAATCCCACCATTACCGCGGCCCGGAGTCACCTAGTGCAG	8390 fluorescence intensity (a.u.)
AAGGAATCCGATGTTTGTTTACTGCTCGTTTAGTTTCTACCGGAGTCACCTAGTGCAG	11100 fluorescence intensity (a.u.)
CACATCCTCATCTTCTCCTCCGTTGCCGGCGATGACGCGTCGGAGTCACCTAGTGCAG	8980 fluorescence intensity (a.u.)

Sequence	binding signal
GCCTAATCGGGCAGCGCACAAACGTACCTATTATTTATCCCGGAGTCACCTAGTGCAG	9630 fluorescence intensity (a.u.)
CTCTCTCCCGCTTCTGTCTCCGTGTGTGCATATATATATGCGGAGTCACCTAGTGCAG	14700 fluorescence intensity (a.u.)
CCATGCATTTACTCCATAATTTCCACAACTTGCACAAACCCGGAGTCACCTAGTGCAG	8120 fluorescence intensity (a.u.)
GTCTTGAACTTCAGTTGTGCCGCCGCATGCATCCTGTTCTCGGAGTCACCTAGTGCAG	8740 fluorescence intensity (a.u.)
ACACTACCTTAGTTCTTCTACATTTTACTATCTCCAACTCCGGAGTCACCTAGTGCAG	12800 fluorescence intensity (a.u.)
GGTGATGAGTGGTGGGGAGAAGGATGGCTACCAACTTGGACGGAGTCACCTAGTGCAG	8540 fluorescence intensity (a.u.)
ACCTTTTTTTGTTTCTTTTACTTGTCATTACTGGCCATTACGGAGTCACCTAGTGCAG	12800 fluorescence intensity (a.u.)
TGGTTTGTACGATGGTAGTTCCTAGATGTTGCAGTCGTCGCGGAGTCACCTAGTGCAG	8960 fluorescence intensity (a.u.)
CGTCGCTCTCTCTATCATCCAACGGTGTACTTTATTTTTTCGGAGTCACCTAGTGCAG	9550 fluorescence intensity (a.u.)
GGTGTCCGCAGTTACAGGGGTTGGGCGGGTCCCACGCGCTCGGAGTCACCTAGTGCAG	10300 fluorescence intensity (a.u.)
CTAGGTAAGTTTTGAAATTAGTTTTTTTATACGTGTTCCTCGGAGTCACCTAGTGCAG	8330 fluorescence intensity (a.u.)
TCCATCTGTCCGCTCTCTCCTCTTCTTCTTCCTGATAAACCGGAGTCACCTAGTGCAG	8680 fluorescence intensity (a.u.)
CCATGCGACACTCTGCTTTTCCCGGTTTTAGGGGCTATTTCGGAGTCACCTAGTGCAG	11300 fluorescence intensity (a.u.)
GCTCTCTTCCCGCTATTCTTCTCGTCCAGATCTGGACGTCCGGAGTCACCTAGTGCAG	9010 fluorescence intensity (a.u.)
ACAGAAACTCTGCCCGATATTCGATTGGATTTCCTTGGTTCGGAGTCACCTAGTGCAG	8990 fluorescence intensity (a.u.)
CTTATGGCTTTTGATGCACCCACCGTCTTTTTAAGTTTGTCGGAGTCACCTAGTGCAG	9440 fluorescence intensity (a.u.)
AGGGTCGGGAGCGAGGCGTTCTTGATTTTTTTCTTCTTCTCGGAGTCACCTAGTGCAG	8720 fluorescence intensity (a.u.)
AAGTCCATTTGTTCACACGTCTCACCGGATCATCGAACCACGGAGTCACCTAGTGCAG	11800 fluorescence intensity (a.u.)
GGCTTCCCGTTGCGCGCGCGTCCCATCCTCGCCGGCGCTTCGGAGTCACCTAGTGCAG	8470 fluorescence intensity (a.u.)
CCTCCTGCATCGTCAAATCATGATGGATTGTTATTGGACCCGGAGTCACCTAGTGCAG	9130 fluorescence intensity (a.u.)
TTTTTATGTCACTTACATGTGGTCCCCACATATTTATTCTCGGAGTCACCTAGTGCAG	10600 fluorescence intensity (a.u.)

Sequence	binding signal
GATGCCTCCGTCTCTGATCCCCTTGCCACCCCTACCGGATCGGAGTCACCTAGTGCAG	8690 fluorescence intensity (a.u.)
ACTTTGATGACTCCCCTTTTTCCCGCCGCTCGCGTTTGCCCGGAGTCACCTAGTGCAG	8180 fluorescence intensity (a.u.)
ATCGCCTCACTCCACCACCCCACGCTTCCTTCGCCGCTAACGGAGTCACCTAGTGCAG	10900 fluorescence intensity (a.u.)
AACAGTTCTGTAAGTTGATGGATGCCCTATATCTGGTTTTCGGAGTCACCTAGTGCAG	9310 fluorescence intensity (a.u.)
CCCCTAAACTCGTCGCGCAAACTATTGGTTCCGTTTGTGACGGAGTCACCTAGTGCAG	8570 fluorescence intensity (a.u.)
GATTGTCGCGCCGTCCTAACCCAGCCGCGCCCCTCGGGCCCGGAGTCACCTAGTGCAG	8930 fluorescence intensity (a.u.)
GTATCTCCCGTTTTGTCGTTGAAAGCGCCGCGTTTTTCCACGGAGTCACCTAGTGCAG	9220 fluorescence intensity (a.u.)
ATATCCATTTTCTCGTCAATGCCACGGCATGTTTGAGTTACGGAGTCACCTAGTGCAG	8660 fluorescence intensity (a.u.)
TTTTTTTCTTGCACGCGGTAAGGGCTTTCGGTTTTTTGGTCGGAGTCACCTAGTGCAG	10800 fluorescence intensity (a.u.)
TTTGTGTGTGTGTTGTTGGTCGGGTGGGGTCGCCGGCGCCCGGAGTCACCTAGTGCAG	20100 fluorescence intensity (a.u.)
AAGGGGATATGGTGGTCATGAATAGATAGATACGTTAGGTCGGAGTCACCTAGTGCAG	9760 fluorescence intensity (a.u.)
CCCAACCTTGCACACATCGATCATCATACTCCCATCCTTTCGGAGTCACCTAGTGCAG	11000 fluorescence intensity (a.u.)
CCGGACGCCAGCTCACGAATATCCACCCGATTTAATCCCGCGGAGTCACCTAGTGCAG	8580 fluorescence intensity (a.u.)
GTCCTATCTCTCGTGTTTTATCGGACATCCGATTGCCTCTCGGAGTCACCTAGTGCAG	8960 fluorescence intensity (a.u.)
TACACACATAAACTTTCAATTTTTCCGTCATATCGTTCTACGGAGTCACCTAGTGCAG	9420 fluorescence intensity (a.u.)
CATCAAATTCTTCGTATGCCACTTTTTTAGCATCAAATTCCGGAGTCACCTAGTGCAG	9250 fluorescence intensity (a.u.)
TCTCATCTCCTCGACCCTATTATCAGTAGCCTCTCTTGTACGGAGTCACCTAGTGCAG	8830 fluorescence intensity (a.u.)
GCTACCCTATTCCTTTCTTTCTTTCTTAGTAGGTCTTTCTCGGAGTCACCTAGTGCAG	12000 fluorescence intensity (a.u.)
TCCGCACAACGTTGACTGGGTCATTACATCATTTTCCGTACGGAGTCACCTAGTGCAG	11400 fluorescence intensity (a.u.)
CTCCCTGTTCGTTCGTGACGGCTCGGCTTCCTCTCCGCTCCGGAGTCACCTAGTGCAG	9910 fluorescence intensity (a.u.)
CCTCCCTCCTCTCCTCTCCTCGCTTCCGGGTTCCGCCGCGCGGAGTCACCTAGTGCAG	8430 fluorescence intensity (a.u.)

Some values from the entries so far:
Entry of TCCTCTGTTTTACACTTGCATTCCTATCAGAATCCTATATCGGAGTCACCTAGTGCAG under binding signal: 9540 fluorescence intensity (a.u.)
Entry of ATTGCTTCCTTTTCCAACACCGCCTTTTAACCCTAAAAACCGGAGTCACCTAGTGCAG under binding signal: 9550 fluorescence intensity (a.u.)
Entry of GCCACCACCAAGCCTTTGGTTTCTTTCACGCGCGCTCGCCCGGAGTCACCTAGTGCAG under binding signal: 9640 fluorescence intensity (a.u.)
Entry of ATCGCCTCACTCCACCACCCCACGCTTCCTTCGCCGCTAACGGAGTCACCTAGTGCAG under binding signal: 10900 fluorescence intensity (a.u.)
Entry of AAACACCTCTTTGGCCTGGTTTAGTTTCTAACTTTTTCTTCGGAGTCACCTAGTGCAG under binding signal: 8780 fluorescence intensity (a.u.)

Source: PMC7819943, “Rice protein-binding microarrays: a tool to detect cis-acting elements near promoter regions in rice”
